Data as given in PubChem BioAssay AID504808 (Drosophila RNAi Screening Center, 2011)
The deposit covers about 21,000 reagents; below is an unselected part of those that have a named target and a result. Of all reagents, 18 (0.084%) got an active call. 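Raw counts without plate normalisation, one of two replicates; the ratio scores behind the calls were not deposited.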 Entries without a mark were called inactive. The numbers tell different reagents against one gene apart. Names joined by + are all predicted targets of the reagent. Not stated in the record: the amount of reagent, the time to read-out.

Test: 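Chromatin factors that keep E2F targets switched off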 (primary screen)
Cells: Drosophila S2 cells
Knock-down reagent: long dsRNA against Drosophila genes
Measurement: 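Dual luciferase plate measurements; E2F-specific signal taken as firefly over Renilla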
Scale: E2F firefly: higher = more E2F reporter activity; Renilla normaliser: higher = more normaliser reporter signal
Active means: 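Called active if the normalised E2F reporter went up by over 50%; the cutoff is arbitrary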

The first 4 records, ahead of the listing:
CG8366
- E2F firefly, rep 1: 1.44e5
- Renilla normaliser, rep 1: 5312

CG34125
- E2F firefly, rep 1: 1.26e5
- Renilla normaliser, rep 1: 6333

Svip
- E2F firefly, rep 1: 1.27e5
- Renilla normaliser, rep 1: 5111

CG32269 + CG32270
- E2F firefly, rep 1: 1.04e5
- Renilla normaliser, rep 1: 4882

The listing, from the first entry:
CG8366
- E2F firefly, rep 1: 1.44e5
- Renilla normaliser, rep 1: 5312

CG34125
- E2F firefly, rep 1: 1.26e5
- Renilla normaliser, rep 1: 6333

Svip
- E2F firefly, rep 1: 1.27e5
- Renilla normaliser, rep 1: 5111

CG32269 + CG32270
- E2F firefly, rep 1: 1.04e5
- Renilla normaliser, rep 1: 4882

Txl
- E2F firefly, rep 1: 76152
- Renilla normaliser, rep 1: 3337

CG14286
- E2F firefly, rep 1: 1.38e5
- Renilla normaliser, rep 1: 7252

CG17191
- E2F firefly, rep 1: 1.20e5
- Renilla normaliser, rep 1: 4635

CG42531
- E2F firefly, rep 1: 1.50e5
- Renilla normaliser, rep 1: 4555

CG31126
- E2F firefly, rep 1: 1.08e5
- Renilla normaliser, rep 1: 5904

CrzR #1
- E2F firefly, rep 1: 1.32e5
- Renilla normaliser, rep 1: 6743

CrzR #2
- E2F firefly, rep 1: 1.25e5
- Renilla normaliser, rep 1: 6546

Or45a
- E2F firefly, rep 1: 1.37e5
- Renilla normaliser, rep 1: 4861

Spps
- E2F firefly, rep 1: 70999
- Renilla normaliser, rep 1: 3435

Send1
- E2F firefly, rep 1: 1.38e5
- Renilla normaliser, rep 1: 5242

CNMaR #1
- E2F firefly, rep 1: 1.26e5
- Renilla normaliser, rep 1: 4324

CNMaR #2
- E2F firefly, rep 1: 1.18e5
- Renilla normaliser, rep 1: 5653

Obp28a
- E2F firefly, rep 1: 1.45e5
- Renilla normaliser, rep 1: 4571

rst #1
- E2F firefly, rep 1: 77151
- Renilla normaliser, rep 1: 3435

rst #2
- E2F firefly, rep 1: 1.26e5
- Renilla normaliser, rep 1: 6542

Rbp1-like
- E2F firefly, rep 1: 1.43e5
- Renilla normaliser, rep 1: 7868

CG3513
- E2F firefly, rep 1: 1.33e5
- Renilla normaliser, rep 1: 5339

par-1 #1
- E2F firefly, rep 1: 1.32e5
- Renilla normaliser, rep 1: 4549

par-1 #2
- E2F firefly, rep 1: 1.46e5
- Renilla normaliser, rep 1: 4862

par-1 #3
- E2F firefly, rep 1: 81878
- Renilla normaliser, rep 1: 3903

par-1 #4
- E2F firefly, rep 1: 1.16e5
- Renilla normaliser, rep 1: 4453

par-1 #5
- E2F firefly, rep 1: 1.40e5
- Renilla normaliser, rep 1: 4967

CG43689
- E2F firefly, rep 1: 62765
- Renilla normaliser, rep 1: 3616

CG11035
- E2F firefly, rep 1: 67773
- Renilla normaliser, rep 1: 3910

strat
- E2F firefly, rep 1: 1.52e5
- Renilla normaliser, rep 1: 4813

drl
- E2F firefly, rep 1: 73775
- Renilla normaliser, rep 1: 3569

Trm7-32
- E2F firefly, rep 1: 73700
- Renilla normaliser, rep 1: 3537

CG32829
- E2F firefly, rep 1: 1.40e5
- Renilla normaliser, rep 1: 5213

Xpd
- E2F firefly, rep 1: 72308
- Renilla normaliser, rep 1: 3691

CG43773 #1
- E2F firefly, rep 1: 1.64e5
- Renilla normaliser, rep 1: 5623

CG43773 #2
- E2F firefly, rep 1: 1.47e5
- Renilla normaliser, rep 1: 4921

CG5726
- E2F firefly, rep 1: 70376
- Renilla normaliser, rep 1: 3598
